# Measurements taken from PMC7956269.
# Molecular target: Biotin-FOXC1 (mouse) (UniProt Q61572)
# Test: affinity purification with mass spectrometry; streptavidin-agarose precipitation of biotinylated FOXC1 from nuclear extract of stable HEK293T cells (293T-Biotin-FOXC1); IP350 buffer (350 mM NaCl, 20 mM Tris-HCl pH 7.5, 0.5% NP40, 1 mM EDTA, 10% glycerin); SDS-PAGE, LC-ESI-MS/MS; proteins of the 293T-Biotin control deducted
row,binding,Binder
1,binds,"Abcf2 (protein, UniProt Q9UG63 1-623) MPSDLAKKKAAKKKEAAKARQRPRKGHEENGDVVTEPQVAEKNEANGRETTEVDLLTKELEDFEMKKAAARAVTGVLASHPNSTDVHIINLSLTFHGQELLSDTKLELNSGRRYGLIGLNGIGKSMLLSAIGKREVPIPEHIDIYHLTREMPPSDKTPLHCVMEVDTERAMLEKEAERLAHEDAECEKLMELYERLEELDADKAEMRASRILHGLGFTPAMQRKKLKDFSGGWRMRVALARALFIRPFMLLLDEPTNHLDLDACVWLEEELKTFKRILVLVSHSQDFLNGVCTNIIHMHNKKLKYYTGNYDQYVKTRLELEENQMKRFHWEQDQIAHMKNYIARFGHGSAKLARQAQSKEKTLQKMMASGLTERVVSDKTLSFYFPPCGKIPPPVIMVQNVSFKYTKDGPCIYNNLEFGIDLDTRVALVGPNGAGKSTLLKLLTGELLPTDGMIRKHSHVKIGRYHQHLQEQLDLDLSPLEYMMKCYPEIKEKEEMRKIIGRYGLTGKQQVSPIRNLSDGQKCRVCLAWLAWQNPHMLFLDEPTNHLDIETIDALADAINEFEGGMMLVSHDFRLIQQVAQEIWVCEKQTITKWPGDILAYKEHLKSKLVDEEPQLTKRTHNV"
2,binds,"Uhrf1 (protein, UniProt Q96T88 1-793) MWIQVRTMDGRQTHTVDSLSRLTKVEELRRKIQELFHVEPGLQRLFYRGKQMEDGHTLFDYEVRLNDTIQLLVRQSLVLPHSTKERDSELSDTDSGCCLGQSESDKSSTHGEAAAETDSRPADEDMWDETELGLYKVNEYVDARDTNMGAWFEAQVVRVTRKAPSRDEPCSSTSRPALEEDVIYHVKYDDYPENGVVQMNSRDVRARARTIIKWQDLEVGQVVMLNYNPDNPKERGFWYDAEISRKRETRTARELYANVVLGDDSLNDCRIIFVDEVFKIERPGEGSPMVDNPMRRKSGPSCKHCKDDVNRLCRVCACHLCGGRQDPDKQLMCDECDMAFHIYCLDPPLSSVPSEDEWYCPECRNDASEVVLAGERLRESKKKAKMASATSSSQRDWGKGMACVGRTKECTIVPSNHYGPIPGIPVGTMWRFRVQVSESGVHRPHVAGIHGRSNDGAYSLVLAGGYEDDVDHGNFFTYTGSGGRDLSGNKRTAEQSCDQKLTNTNRALALNCFAPINDQEGAEAKDWRSGKPVRVVRNVKGGKNSKYAPAEGNRYDGIYKVVKYWPEKGKSGFLVWRYLLRRDDDEPGPWTKEGKDRIKKLGLTMQYPEGYLEALANREREKENSKREEEEQQEGGFASPRTGKGKWKRKSAGGGPSRAGSPRRTSKKTKVEPYSLTAQQSSLIREDKSNAKLWNEVLASLKDRPASGSPFQLFLSKVEETFQCICCQELVFRPITTVCQHNVCKDCLDRSFRAQVFSCPACRYDLGRSYAMQVNQPLQTVLNQLFPGYGNGR"
3,binds,"Nmd3 (protein, UniProt Q96D46 1-503) MEYMAESTDRSPGHILCCECGVPISPNPANICVACLRSKVDISQGIPKQVSISFCKQCQRYFQPPGTWIQCALESRELLALCLKKIKAPLSKVRLVDAGFVWTEPHSKRLKVKLTIQKEVMNGAILQQVFVVDYVVQSQMCGDCHRVEAKDFWKAVIQVRQKTLHKKTFYYLEQLILKYGMHQNTLRIKEIHDGLDFYYSSKQHAQKMVEFLQCTVPCRYKASQRLISQDIHSNTYNYKSTFSVEIVPICKDNVVCLSPKLAQSLGNMNQICVCIRVTSAIHLIDPNTLQVADIDGSTFWSHPFNSLCHPKQLEEFIVMECSIVQDIKRAAGAGMISKKHTLGEVWVQKTSEMNTDKQYFCRTHLGHLLNPGDLVLGFDLANCNLNDEHVNKMNSDRVPDVVLIKKSYDRTKRQRRRNWKLKELARERENMDTDDERQYQDFLEDLEEDEAIRKNVNIYRDSAIPVESDTDDEGAPRISLAEMLEDLHISQDATGEEGASMLT"
4,binds,"Caap1 (protein, UniProt Q9H8G2 1-361) MTGKKSSREKRRKRSSQEAAAALAAPDIVPALASGSSGSTSGCGSAGGCGSVSCCGNANFSGSVTGGGSGGSCWGGSSVERSERRKRRSTDSSSVSGSLQQETKYILPTLEKELFLAEHSDLEEGGLDLTVSLKPVSFYISDKKEMLQQCFCIIGEKKLQKMLPDVLKNCSIEEIKKLCQEQLELLSEKKILKILEGDNGMDSDMEEEADDGSKMGSDLVSQQDICIDSASSVRENKQPEGLELKQGKGEDSDVLSINADAYDSDIEGPCNEEAAAPEAPENTVQSEAGQIDDLEKDIEKSVNEILGLAESSPNEPKAATLAVPPPEDVQPSAQQLELLELEMRARAIKALMKAGDIKKPA"
5,binds,"Mccc1 (protein, UniProt Q96RQ3 42-725) TTATGRNITKVLIANRGEIACRVMRTAKKLGVQTVAVYSEADRNSMHVDMADEAYSIGPAPSQQSYLSMEKIIQVAKTSAAQAIHPGCGFLSENMEFAELCKQEGIIFIGPPPSAIRDMGIKSTSKSIMAAAGVPVVEGYHGEDQSDQCLKEHARRIGYPVMIKAVRGGGGKGMRIVRSEQEFQEQLESARREAKKSFNDDAMLIEKFVDTPRHVEVQVFGDHHGNAVYLFERDCSVQRRHQKIIEEAPAPGIKSEVRKKLGEAAVRAAKAVNYVGAGTVEFIMDSKHNFCFMEMNTRLQVEHPVTEMITGTDLVEWQLRIAAGEKIPLSQEEITLQGHAFEARIYAEDPSNNFMPVAGPLVHLSTPRADPSTRIETGVRQGDEVSVHYDPMIAKLVVWAADRQAALTKLRYSLRQYNIVGLHTNIDFLLNLSGHPEFEAGNVHTDFIPQHHKQLLLSRKAAAKESLCQAALGLILKEKAMTDTFTLQAHDQFSPFSSSSGRRLNISYTRNMTLKDGKNNVAIAVTYNHDGSYSMQIEDKTFQVLGNLYSEGDCTYLKCSVNGVASKAKLIILENTIYLFSKEGSIEIDIPVPKYLSSVSSQETQGGPLAPMTGTIEKVFVKAGDKVKAGDSLMVMIAMKMEHTIKSPKDGTVKKVFYREGAQANRHTPLVEFEEEESDKRESE"
6,binds,"Mcm6 (protein, UniProt Q14566 1-821) MDLAAAAEPGAGSQHLEVRDEVAEKCQKLFLDFLEEFQSSDGEIKYLQLAEELIRPERNTLVVSFVDLEQFNQQLSTTIQEEFYRVYPYLCRALKTFVKDRKEIPLAKDFYVAFQDLPTRHKIRELTSSRIGLLTRISGQVVRTHPVHPELVSGTFLCLDCQTVIRDVEQQFKYTQPNICRNPVCANRRRFLLDTNKSRFVDFQKVRIQETQAELPRGSIPRSLEVILRAEAVESAQAGDKCDFTGTLIVVPDVSKLSTPGARAETNSRVSGVDGYETEGIRGLRALGVRDLSYRLVFLACCVAPTNPRFGGKELRDEEQTAESIKNQMTVKEWEKVFEMSQDKNLYHNLCTSLFPTIHGNDEVKRGVLLMLFGGVPKTTGEGTSLRGDINVCIVGDPSTAKSQFLKHVEEFSPRAVYTSGKASSAAGLTAAVVRDEESHEFVIEAGALMLADNGVCCIDEFDKMDVRDQVAIHEAMEQQTISITKAGVKATLNARTSILAAANPISGHYDRSKSLKQNINLSAPIMSRFDLFFILVDECNEVTDYAIARRIVDLHSRIEESIDRVYSLDDIRRYLLFARQFKPKISKESEDFIVEQYKHLRQRDGSGVTKSSWRITVRQLESMIRLSEAMARMHCCDEVQPKHVKEAFRLLNKSIIRVETPDVNLDQEEEIQMEVDEGAGGINGHADSPAPVNGINGYNEDINQESAPKASLRLGFSEYCRISNLIVLHLRKVEEEEDESALKRSELVNWYLKEIESEIDSEEELINKKRIIEKVIHRLTHYDHVLIELTQAGLKGSTEGSESYEEDPYLVVNPNYLLED"

# Results are given in words; binding and its absence hold for the method and conditions named. Binding seen in cells or lysates may run through a third protein. A yes stands for co-enrichment or nearness to the bait. Other partners may have been found.
